# Data taken from the supplement of paper PMC3334620.
# Over roughly 33,000 sequences, “E-score (-0.5 to 0.5)” has its median near -0.0014; the highest 2% begin near 0.25. This is one part of the list.
# Molecular target: T1, Cad1 (UniProt P24813)
# T1 sequence: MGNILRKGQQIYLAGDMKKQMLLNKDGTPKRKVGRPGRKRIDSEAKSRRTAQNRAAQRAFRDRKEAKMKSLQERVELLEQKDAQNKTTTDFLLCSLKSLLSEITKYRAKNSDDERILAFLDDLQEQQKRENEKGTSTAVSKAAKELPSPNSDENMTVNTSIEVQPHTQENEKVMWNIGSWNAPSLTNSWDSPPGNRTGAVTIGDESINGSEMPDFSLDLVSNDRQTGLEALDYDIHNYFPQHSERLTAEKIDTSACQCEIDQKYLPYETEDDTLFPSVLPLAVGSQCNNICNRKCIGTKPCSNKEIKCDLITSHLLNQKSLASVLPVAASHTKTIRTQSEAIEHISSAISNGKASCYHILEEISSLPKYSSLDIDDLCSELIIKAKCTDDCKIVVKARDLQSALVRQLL
# Test: PBM E-score (8-mer binding enrichment) (E-score (-0.5 to 0.5)); higher = stronger / more preferred TF binding
# Details: protein concentration: 100 nM; construct: GST-full length
# Outline: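 Yeast transcription factors carrying a GST tag, as full-length proteins or DNA-binding domains, were produced by PURExpress in vitro transcription/translation. About 100-200 nM protein was applied to universal all-10-mer Agilent arrays, double-stranded by primer extension on fresh or once-stripped slides. Bound protein was detected with fluorescent anti-GST, and scans were normalised with masliner. The Universal PBM Analysis Suite gave each ungapped eight-base word, pooled with its reverse complement, an E-score, a modified Wilcoxon-Mann-Whitney statistic.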
row,Sequence,PBM E-score
1,AGGGACCG,-0.352
2,ATGACTAG,-0.129
3,AGGAGCGA,-0.09
4,ATTGGTCA,0.103
5,ATCCGGCA,0.143
6,AATTAGAC,0.0936
7,AGTCGAGA,0.125
8,ATCATCGA,0.0835
9,TACGCAAA,-0.0262
10,ATAGAACG,0.174
11,CAACGATC,0.0755
12,TCAACGGA,0.0289
13,AAAGGCAG,0.0302
14,TAGTGGCA,-0.0829
15,AAGGACCT,-0.0949
16,CGGTTAAG,-0.0177
17,AGTGAATC,-0.0986
18,CCGATCTC,0.0279
19,CGGTACAG,0.0652
20,GCCAGTCA,-0.0356
21,ACTCAGTC,-0.0615
22,CGATGACG,-0.04
23,GCAAGAGC,0.00627
24,CACATCCG,0.0581
25,GAATCCCC,-0.252

row,Sequence,PBM E-score
1,AAAACATG,0.0118
2,CAGTTACA,-0.00475
3,GCAGGGCA,0.0614
4,ACGCTCAG,-0.172
5,AGCATAAT,0.172
6,GCCCTCTA,-0.146
7,CTCTCGAC,-0.156
8,GCGATTCA,0.0123
9,AGCTGATC,-0.0102
10,CCTAGCTA,-0.00626
11,GCATACTA,0.0261
12,CCTACCAG,-0.334
13,TGAAATCA,0.101
14,CCGGGTCA,-0.183
15,CAGAAAGA,-0.047
16,CACATTTA,0.112
17,AGGTTGTG,0.0413
18,ATGGCCGC,-0.0765
19,CACGTAGA,-0.0666
20,CGTTTGGC,0.00859
21,ATACAACC,-0.0813
22,ACCGATGA,-0.0808
23,CCCATTCA,-0.0881
24,ACTTGAAA,0.0151
25,GAACCCCA,-0.0272

row,Sequence,PBM E-score
1,CGACTAAC,0.0712
2,GATCGCGC,0.118
3,TCCCTAGA,0.001
4,GGTCGGCA,-0.195
5,AAGAGGCT,-0.154
6,ACATCTTC,-0.124
7,CACGATAA,0.131
8,CATGCCGC,0.165
9,CAACCTGA,-0.0704
10,CGTTCATA,-0.0124
11,ACGGAAAC,-0.0435
12,ACCTGGCC,0.048
13,CATATACG,0.0636
14,ACCGTTAA,0.1
15,GAGTTTGA,0.062
16,ATTTATCG,0.098
17,CGAGTGCC,-0.174
18,AACAAGGA,0.0892
19,GGAGCTCC,-0.175
20,CCTGGGCG,-0.178
21,GGTTATTA,0.102
22,ATCACCCA,-0.0164
23,GTACGACA,0.0788
24,ACCTATTG,-0.131
25,GGAATCCC,-0.122

row,Sequence,PBM E-score
1,GACAGCGA,-0.0527
2,GGATCACC,-0.0708
3,CTTAATTC,0.177
4,CCGTGGCA,-0.0478
5,ACGAATAT,0.268
6,CGCTTAGC,-0.0176
7,GCGGCTCC,-0.315
8,AGCACCCG,-0.139
9,CGTGCAAG,-0.0319
10,GAATCCAC,-0.115
11,CATATCCG,0.137
12,AGCTCTAT,-0.003
13,AGGTAAAC,0.105
14,ATATAGCG,-0.0745
15,CTCCGTCC,-0.0903
16,AGCACCAT,-0.274
17,CAACGTGC,-0.0688
18,AAAAGCAT,0.0297
19,AATTCCGC,0.134
20,GGACCATA,-0.233
21,ATGACCAC,0.0111
22,GATTCAAC,0.0284
23,GTGCGGAA,0.0803
24,ACGATAGC,0.0382
25,AAACACCG,0.0237

# Single values from the results shown.
# AGCTCTAT | PBM E-score: -0.003
# AGCACCCG | PBM E-score: -0.139
# AATTCCGC | PBM E-score: 0.134

# Next part:

row,Sequence,PBM E-score
1,AGCGACGC,0.124
2,ACTTTAGA,-0.102
3,ACTTCACG,0.0107
4,AGGGACAC,-0.0633
5,GGGGCTTA,-0.205
6,CAGTCTGC,-0.121
7,CACAGATA,0.0872
8,ACGCATTC,0.0308
9,CACAGGCA,-0.108
10,AAAGATGT,0.0214
11,CCTAGCCC,-0.224
12,GAGGAGCC,-0.298
13,CGTTGATC,0.0738
14,ATATCGCG,0.267
15,AACGGAGA,0.00419
16,CAATCTAA,-0.0478
17,AGTGTATA,-0.023
18,GAGTTCGC,0.101
19,ACTCCAGG,-0.0811
20,GCTAGTAA,0.00044
21,GACCGGTA,-0.341
22,AAACTACT,0.082
23,CGCGTGAG,0.269
24,AGCGAGCT,0.139
25,AGGTTCAC,0.0861

row,Sequence,PBM E-score
1,AACGGCTC,-0.029
2,AGCTGTCA,0.114
3,AACGCCCA,0.0142
4,CAGAAACC,0.0934
5,CGTTCGGA,0.129
6,CACAGGGA,-0.194
7,CGCCTTAG,0.0418
8,CTCCACTC,-0.274
9,AACGTACA,0.0359
10,CGGCCGGC,0.00567
11,GGTAACTA,0.169
12,CCTAAAAG,-0.178
13,CAGGAAAG,-0.272
14,CGTGCGTC,0.149
15,CATTCACC,-0.00775
16,CAAGGCTG,-0.0461
17,GGCAGTCA,-0.00415
18,ACGCGTGA,0.226
19,ACTGTGGC,-0.209
20,CCGAGTCG,0.0136
21,ACTCTTAA,-0.0337
22,ACTCATGC,0.0941
23,ACACTCAC,0.0365
24,TAACGGCA,0.0277
25,AACCTGCG,-0.142

row,Sequence,PBM E-score
1,CAGCCAAA,0.138
2,CGCTTTCC,-0.0421
3,AAGTGGTG,0.00917
4,GTGGTCGA,-0.14
5,GGGTCATA,-0.239
6,AACACGGG,0.0495
7,ACAAATCC,0.214
8,CCGTAAGC,0.117
9,CACCTTGA,-0.0765
10,ACCCACGC,-0.15
11,TTCGAGAA,0.101
12,CCACGTGG,-0.139
13,AGACGCAC,0.0398
14,CCTCGCCA,-0.268
15,GGCGGCTA,0.0654
16,AGATCCTA,0.0182
17,GCATCAAA,0.0684
18,AAGACTAC,-0.0145
19,GACTGGCC,-0.09
20,CCACGTGC,0.00023
21,CATCTACA,0.06
22,AAGCAAGT,0.0755

# Three records drawn at random from the list so far, as already listed:
row,Sequence,PBM E-score
10,CGGCCGGC,0.00567
8,CTCCACTC,-0.274
4,ACGCTCAG,-0.172
